Measurements as given in the supplement of paper PMC12067093, “Discovery and optimisation of a covalent ligand for TRIM25 and its application to targeted protein ubiquitination” (Chemical Science, 2025).
Some of the results follow.

Protein sequences, listed by entry. Tags and fused reporters are not part of them. Lines headed by an entry give the natural chain unless they say otherwise; changes in a name come on top.
UniProt Q9GZY8: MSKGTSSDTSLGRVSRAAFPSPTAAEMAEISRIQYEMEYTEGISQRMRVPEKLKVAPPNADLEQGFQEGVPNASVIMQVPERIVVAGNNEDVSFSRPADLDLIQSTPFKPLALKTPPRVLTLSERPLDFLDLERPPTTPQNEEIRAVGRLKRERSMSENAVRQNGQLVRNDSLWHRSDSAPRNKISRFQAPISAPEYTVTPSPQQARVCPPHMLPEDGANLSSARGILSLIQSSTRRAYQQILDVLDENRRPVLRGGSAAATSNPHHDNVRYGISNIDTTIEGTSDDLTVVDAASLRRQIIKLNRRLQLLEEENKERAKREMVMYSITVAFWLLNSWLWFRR
UniProt P33993, whole entry, looked up: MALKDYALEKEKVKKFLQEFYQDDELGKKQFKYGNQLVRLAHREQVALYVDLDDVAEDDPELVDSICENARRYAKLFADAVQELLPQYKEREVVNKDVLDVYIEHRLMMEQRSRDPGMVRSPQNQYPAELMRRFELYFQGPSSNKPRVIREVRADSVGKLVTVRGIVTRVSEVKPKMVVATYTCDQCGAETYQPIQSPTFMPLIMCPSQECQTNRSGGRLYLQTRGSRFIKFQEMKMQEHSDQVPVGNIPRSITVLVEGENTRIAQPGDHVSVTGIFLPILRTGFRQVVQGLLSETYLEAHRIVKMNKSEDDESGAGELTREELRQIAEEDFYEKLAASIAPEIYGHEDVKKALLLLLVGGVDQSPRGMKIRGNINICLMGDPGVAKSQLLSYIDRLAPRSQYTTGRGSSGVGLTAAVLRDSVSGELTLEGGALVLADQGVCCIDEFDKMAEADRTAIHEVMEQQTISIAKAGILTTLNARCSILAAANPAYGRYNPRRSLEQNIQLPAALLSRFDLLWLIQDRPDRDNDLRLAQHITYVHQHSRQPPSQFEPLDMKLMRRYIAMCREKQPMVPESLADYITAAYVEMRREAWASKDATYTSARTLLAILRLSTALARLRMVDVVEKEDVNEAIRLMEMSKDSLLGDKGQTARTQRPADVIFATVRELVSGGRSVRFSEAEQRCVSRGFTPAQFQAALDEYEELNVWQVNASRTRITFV
UniProt Q9HCC0: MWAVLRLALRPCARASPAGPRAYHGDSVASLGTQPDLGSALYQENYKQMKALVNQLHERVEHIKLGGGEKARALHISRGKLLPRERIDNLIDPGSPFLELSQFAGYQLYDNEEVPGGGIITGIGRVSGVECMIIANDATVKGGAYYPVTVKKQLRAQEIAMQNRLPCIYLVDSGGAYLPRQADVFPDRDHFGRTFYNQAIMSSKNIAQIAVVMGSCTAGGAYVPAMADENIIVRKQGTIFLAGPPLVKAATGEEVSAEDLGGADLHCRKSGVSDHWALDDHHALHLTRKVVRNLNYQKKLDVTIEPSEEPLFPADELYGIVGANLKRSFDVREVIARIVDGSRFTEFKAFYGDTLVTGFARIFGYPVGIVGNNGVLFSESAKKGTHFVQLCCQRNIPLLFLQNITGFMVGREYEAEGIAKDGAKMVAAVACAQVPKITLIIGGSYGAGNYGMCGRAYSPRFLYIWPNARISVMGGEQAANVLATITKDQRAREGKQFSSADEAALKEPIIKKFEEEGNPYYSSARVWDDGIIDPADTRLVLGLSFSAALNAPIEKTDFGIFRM
UniProt P49736, whole entry, looked up: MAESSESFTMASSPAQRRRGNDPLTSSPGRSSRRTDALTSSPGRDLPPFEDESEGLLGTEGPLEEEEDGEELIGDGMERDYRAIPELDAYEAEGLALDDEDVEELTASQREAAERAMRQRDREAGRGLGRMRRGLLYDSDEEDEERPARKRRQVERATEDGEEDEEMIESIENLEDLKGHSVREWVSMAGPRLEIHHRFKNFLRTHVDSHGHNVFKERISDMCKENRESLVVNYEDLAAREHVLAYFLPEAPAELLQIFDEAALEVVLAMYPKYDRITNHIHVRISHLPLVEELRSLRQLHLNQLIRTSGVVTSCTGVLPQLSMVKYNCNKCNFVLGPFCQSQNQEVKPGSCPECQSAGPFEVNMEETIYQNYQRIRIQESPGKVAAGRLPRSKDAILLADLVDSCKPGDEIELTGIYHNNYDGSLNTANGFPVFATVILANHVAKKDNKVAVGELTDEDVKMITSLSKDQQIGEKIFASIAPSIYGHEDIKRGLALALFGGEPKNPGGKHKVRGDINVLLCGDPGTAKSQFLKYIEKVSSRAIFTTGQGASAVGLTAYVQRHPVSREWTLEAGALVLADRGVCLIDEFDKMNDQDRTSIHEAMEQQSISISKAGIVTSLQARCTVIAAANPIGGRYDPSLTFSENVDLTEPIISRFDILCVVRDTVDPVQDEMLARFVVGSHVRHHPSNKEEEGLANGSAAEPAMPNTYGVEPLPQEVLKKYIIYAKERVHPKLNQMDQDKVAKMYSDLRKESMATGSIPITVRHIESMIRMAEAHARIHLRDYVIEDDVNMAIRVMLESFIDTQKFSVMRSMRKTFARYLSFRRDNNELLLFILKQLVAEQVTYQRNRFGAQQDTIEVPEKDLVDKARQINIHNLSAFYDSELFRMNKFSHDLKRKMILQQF
UniProt Q86U44, whole entry, looked up: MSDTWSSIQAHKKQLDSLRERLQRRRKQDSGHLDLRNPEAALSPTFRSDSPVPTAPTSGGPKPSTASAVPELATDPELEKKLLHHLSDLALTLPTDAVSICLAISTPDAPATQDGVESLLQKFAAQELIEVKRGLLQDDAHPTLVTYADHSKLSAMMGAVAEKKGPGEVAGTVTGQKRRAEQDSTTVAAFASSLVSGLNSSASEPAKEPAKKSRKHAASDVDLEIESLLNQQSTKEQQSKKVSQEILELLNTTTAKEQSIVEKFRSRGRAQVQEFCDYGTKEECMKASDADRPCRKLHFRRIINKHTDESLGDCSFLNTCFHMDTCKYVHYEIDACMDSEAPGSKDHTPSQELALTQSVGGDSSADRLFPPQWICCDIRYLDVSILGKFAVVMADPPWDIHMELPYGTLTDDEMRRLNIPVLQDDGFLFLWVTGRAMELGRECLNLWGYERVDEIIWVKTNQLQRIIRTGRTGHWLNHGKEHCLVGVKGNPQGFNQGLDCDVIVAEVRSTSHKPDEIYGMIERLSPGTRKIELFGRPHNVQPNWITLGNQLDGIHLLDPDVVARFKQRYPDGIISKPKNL
UniProt Q14566: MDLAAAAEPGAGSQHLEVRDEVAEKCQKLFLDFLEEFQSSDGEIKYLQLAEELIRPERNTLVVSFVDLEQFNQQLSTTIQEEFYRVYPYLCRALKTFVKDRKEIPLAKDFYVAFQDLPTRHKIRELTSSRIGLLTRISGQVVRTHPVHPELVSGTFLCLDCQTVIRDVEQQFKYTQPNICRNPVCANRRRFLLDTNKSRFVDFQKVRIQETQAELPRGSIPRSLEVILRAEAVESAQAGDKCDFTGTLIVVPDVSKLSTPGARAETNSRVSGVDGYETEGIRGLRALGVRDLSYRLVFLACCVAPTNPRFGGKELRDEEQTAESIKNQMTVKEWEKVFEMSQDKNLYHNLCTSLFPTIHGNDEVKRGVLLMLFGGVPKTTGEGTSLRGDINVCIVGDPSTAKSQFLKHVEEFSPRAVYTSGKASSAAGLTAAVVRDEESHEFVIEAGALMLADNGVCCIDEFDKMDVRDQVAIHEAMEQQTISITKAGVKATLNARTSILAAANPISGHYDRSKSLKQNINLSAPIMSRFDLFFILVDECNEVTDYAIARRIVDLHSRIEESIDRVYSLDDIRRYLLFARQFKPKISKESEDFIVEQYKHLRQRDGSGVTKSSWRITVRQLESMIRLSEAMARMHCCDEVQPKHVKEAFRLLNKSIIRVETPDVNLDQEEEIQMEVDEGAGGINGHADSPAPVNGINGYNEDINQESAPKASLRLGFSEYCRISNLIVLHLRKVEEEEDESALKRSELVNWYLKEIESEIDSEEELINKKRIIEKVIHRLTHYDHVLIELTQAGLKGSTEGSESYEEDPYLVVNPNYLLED
UniProt Q8N6R0: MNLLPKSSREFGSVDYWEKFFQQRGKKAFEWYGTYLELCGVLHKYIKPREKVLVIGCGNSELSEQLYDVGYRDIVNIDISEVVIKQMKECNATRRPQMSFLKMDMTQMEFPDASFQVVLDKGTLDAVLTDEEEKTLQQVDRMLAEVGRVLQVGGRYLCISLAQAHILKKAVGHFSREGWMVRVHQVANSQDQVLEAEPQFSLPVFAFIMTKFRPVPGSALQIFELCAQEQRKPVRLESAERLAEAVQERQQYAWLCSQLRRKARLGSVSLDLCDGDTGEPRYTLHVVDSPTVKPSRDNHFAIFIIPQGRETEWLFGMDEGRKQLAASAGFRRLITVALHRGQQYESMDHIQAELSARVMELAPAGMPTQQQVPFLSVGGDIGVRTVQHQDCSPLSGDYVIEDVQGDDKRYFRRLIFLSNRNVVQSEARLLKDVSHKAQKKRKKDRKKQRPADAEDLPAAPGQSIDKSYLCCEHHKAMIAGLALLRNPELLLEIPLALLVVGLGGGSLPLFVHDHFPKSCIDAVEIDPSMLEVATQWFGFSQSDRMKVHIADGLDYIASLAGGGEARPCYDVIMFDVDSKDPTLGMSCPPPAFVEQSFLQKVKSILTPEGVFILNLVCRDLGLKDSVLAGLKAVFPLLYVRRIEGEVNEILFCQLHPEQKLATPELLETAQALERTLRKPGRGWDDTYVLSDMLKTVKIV
UniProt P48163: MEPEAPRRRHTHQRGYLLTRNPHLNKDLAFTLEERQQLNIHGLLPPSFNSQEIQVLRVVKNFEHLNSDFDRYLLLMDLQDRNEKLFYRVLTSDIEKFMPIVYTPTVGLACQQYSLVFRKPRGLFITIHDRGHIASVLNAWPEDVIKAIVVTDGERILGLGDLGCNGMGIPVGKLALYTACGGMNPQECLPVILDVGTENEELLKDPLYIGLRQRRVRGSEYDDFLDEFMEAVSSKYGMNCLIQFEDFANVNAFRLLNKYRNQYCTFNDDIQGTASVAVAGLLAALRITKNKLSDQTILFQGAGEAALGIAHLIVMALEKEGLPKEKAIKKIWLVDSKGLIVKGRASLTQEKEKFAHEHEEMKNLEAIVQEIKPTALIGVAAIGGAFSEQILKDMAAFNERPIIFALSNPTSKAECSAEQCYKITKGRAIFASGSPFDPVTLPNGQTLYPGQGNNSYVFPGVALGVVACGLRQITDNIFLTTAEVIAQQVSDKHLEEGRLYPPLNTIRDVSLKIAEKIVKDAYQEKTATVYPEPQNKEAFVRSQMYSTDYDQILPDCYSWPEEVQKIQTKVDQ
UniProt O00255, whole entry, looked up: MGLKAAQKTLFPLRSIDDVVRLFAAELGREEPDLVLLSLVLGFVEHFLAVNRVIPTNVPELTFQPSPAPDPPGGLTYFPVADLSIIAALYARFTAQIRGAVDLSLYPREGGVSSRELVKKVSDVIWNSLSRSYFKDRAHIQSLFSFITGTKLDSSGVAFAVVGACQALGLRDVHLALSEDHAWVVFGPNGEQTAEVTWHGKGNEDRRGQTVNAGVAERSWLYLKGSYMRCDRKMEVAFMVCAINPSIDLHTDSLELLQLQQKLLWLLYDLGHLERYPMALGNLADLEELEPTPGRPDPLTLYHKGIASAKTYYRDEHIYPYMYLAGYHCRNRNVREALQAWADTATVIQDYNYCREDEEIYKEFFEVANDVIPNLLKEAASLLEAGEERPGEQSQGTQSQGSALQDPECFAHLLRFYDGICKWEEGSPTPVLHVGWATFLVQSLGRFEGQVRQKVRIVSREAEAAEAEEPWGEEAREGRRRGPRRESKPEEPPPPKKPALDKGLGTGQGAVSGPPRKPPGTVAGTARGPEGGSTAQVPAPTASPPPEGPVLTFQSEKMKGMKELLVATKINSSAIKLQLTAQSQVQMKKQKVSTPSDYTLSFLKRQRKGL
UniProt Q6N075: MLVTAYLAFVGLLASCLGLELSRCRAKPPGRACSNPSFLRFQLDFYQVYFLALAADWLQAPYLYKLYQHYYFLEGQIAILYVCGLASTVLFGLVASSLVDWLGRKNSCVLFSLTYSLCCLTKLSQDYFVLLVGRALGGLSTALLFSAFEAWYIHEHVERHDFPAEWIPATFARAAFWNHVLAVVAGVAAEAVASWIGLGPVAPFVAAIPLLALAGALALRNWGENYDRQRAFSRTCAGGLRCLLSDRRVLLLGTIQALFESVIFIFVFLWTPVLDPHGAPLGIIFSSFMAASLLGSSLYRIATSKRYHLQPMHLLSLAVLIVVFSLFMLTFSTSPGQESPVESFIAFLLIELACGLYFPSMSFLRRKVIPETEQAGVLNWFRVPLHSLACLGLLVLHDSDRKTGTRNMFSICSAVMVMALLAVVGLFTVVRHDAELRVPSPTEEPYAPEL

Compound: CC1Cc2ccccc2N1C(=O)C1CCCN(C1)C(=O)CCl (mixture of isomers) [TRIM25 ligand 11 (diastereomer mixture)]
Assay: probe-labelled cysteine peptide fold change vs DMSO (competition) (log2 fold change); higher = less target engagement (more negative = stronger competition)
Conditions: THP-1, incubation time: 4 h
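Further: competitive chemoproteomic profiling in live THP-1 cells with an iodoacetamide desthiobiotin (IA-DTB) probe, comparing probe-labelled peptide intensities in compound-treated cells against DMSO-treated controls.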

MBTPS2_O43462_386_SSSSSFCIIPSLETHTR (UniProt O43462)
probe-labelled cysteine peptide fold change (10 µM): -0.0619

MFF_Q9GZY8_209_VCPPHMLPEDGANLSSAR (UniProt Q9GZY8)
probe-labelled cysteine peptide fold change (10 µM): -0.0143
probe-labelled cysteine peptide fold change (50 µM): -0.255

MDN1_Q9NU22_1332_KLCPQSLFSK (UniProt Q9NU22)
probe-labelled cysteine peptide fold change (10 µM): -0.248
probe-labelled cysteine peptide fold change (50 µM): -0.123

MCM7_P33993_482_CSILAAANPAYGR (UniProt P33993)
probe-labelled cysteine peptide fold change (10 µM): -0.0176
probe-labelled cysteine peptide fold change (50 µM): -0.037

MCCC2_Q9HCC0_392_KGTHFVQLCCQR (UniProt Q9HCC0)
probe-labelled cysteine peptide fold change (10 µM): -0.0222
probe-labelled cysteine peptide fold change (50 µM): -0.0984

MEGF8_Q7Z7M0_930_KGDAACSR (UniProt Q7Z7M0)
probe-labelled cysteine peptide fold change (10 µM): 0.023
probe-labelled cysteine peptide fold change (50 µM): 0.311

MCM2_P49736_522_VRGDINVLLCGDPGTAK (UniProt P49736)
probe-labelled cysteine peptide fold change (10 µM): -0.0667
probe-labelled cysteine peptide fold change (50 µM): -0.109

METTL3_Q86U44_320+326_HTDESLGDCSFLNTCFHMDTCK (UniProt Q86U44)
probe-labelled cysteine peptide fold change (10 µM): 0.097
probe-labelled cysteine peptide fold change (50 µM): 0.365

MCM6_Q14566_393_GDINVCIVGDPSTAK (UniProt Q14566)
probe-labelled cysteine peptide fold change (10 µM): 0.0736
probe-labelled cysteine peptide fold change (50 µM): 0.0283

METTL13_Q8N6R0_652_IEGEVNEILFCQLHPEQK (UniProt Q8N6R0)
probe-labelled cysteine peptide fold change (10 µM): -0.0514
probe-labelled cysteine peptide fold change (50 µM): 0.0839

MCM6_Q14566_301_LVFLACCVAPTNPR (UniProt Q14566)
probe-labelled cysteine peptide fold change (10 µM): 0.0104
probe-labelled cysteine peptide fold change (50 µM): 0.149

ME1_P48163_110_FMPIVYTPTVGLACQQYSLVFR (UniProt P48163)
probe-labelled cysteine peptide fold change (10 µM): -0.087
probe-labelled cysteine peptide fold change (50 µM): 0.158

MEN1_O00255_334_TYYRDEHIYPYMYLAGYHCR (UniProt O00255)
probe-labelled cysteine peptide fold change (10 µM): -0.0493
probe-labelled cysteine peptide fold change (50 µM): -0.182

MFSD5_Q6N075_390_VPLHSLACLGLLVLHDSDRK (UniProt Q6N075)
probe-labelled cysteine peptide fold change (10 µM): 0.0253
probe-labelled cysteine peptide fold change (50 µM): -0.0131
